{"source": "PubChem BioAssay AID504467", "about": "(National Center for Advancing Translational Sciences (NCATS), 2011)", "note": "Several values for one entry are separate records, joined by “and”; a condition that tells them apart may be missing. Equal values may be shown once. The whole screen tested about 330,000 compounds, of which about 7,700 (2.3%) were called active. Inconclusive results, whose numbers are uncertain, are shown with a selection of clear calls. Calls follow the shape of the dose curve; as a rule, active = well fitted inhibition curve with a large enough effect; inconclusive = small, poorly fitted or top-dose-only effect, or effect the other way; inactive = flat fitted curve, though single readings scatter. Where the call is inconclusive, the potency comes from a doubtful curve fit. % is scaled to controls: 0 for no effect and ±100 for the full control effect; potency is read from the fitted curve at half-maximal effect."}
{"assay": "qHTS screen for small molecules that inhibit ELG1-dependent DNA repair in human embryonic kidney (HEK293T) cells expressing luciferase-tagged ELG1; also: nearly all actives have a fitted effect of over 55% in size", "details": "HEK293T ELG1-luciferase reporter, luminescence, 16 h, DNA damage induced by 5-fluorouridine; activity change, negative = inhibition: at 46.1 µM (top of the series)", "outline": "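Step one: seed 2,000 cells per well. Step two: pin-transfer compound or DMSO alongside 5-fluorouridine. Step three: incubate 16 hr, 37 °C, 5% CO2. Step four: add ONE-Glo, wait 30 min, read luminescence.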"}
{"compound": "c1cncc(-c2nc(-c3cccs3)cs2)c1", "Potency": "inconclusive: 12.6 µM [activator, single point]"}
{"compound": "Cc1ccc(C(=O)OCC(=O)c2c[nH]c3ccccc23)cc1S(=O)(=O)N1CCOCC1", "Potency": "inconclusive: 14.6 µM [inhibitor, partial curve, poor fit]"}
{"compound": "COc1ccc(C(=O)Nc2ccc(NC(C)=O)cc2)cc1S(=O)(=O)N(C)Cc1ccccc1", "Potency": "inconclusive: 29.1 µM [inhibitor, single point]"}
{"compound": "COc1ccc(/C=C/CN2CCN(Cc3ccccc3)C(CCO)C2)cc1", "note": "(stereo not given)", "activity change, negative = inhibition": "inactive: -3.75%"}
{"compound": "Cc1cc(C)nc(SCC(=O)Nc2cccc(S(=O)(=O)N(C)C)c2)n1", "Potency": "inconclusive: 11.6 µM [inhibitor, partial curve]"}
{"compound": "COc1ccc(/C=N/Nc2nn3cnnc3c3ccccc23)cc1", "Potency": "inconclusive: 20.6 µM [activator, single point]"}
{"compound": "COCCCN1C(=O)c2[nH]nc(-c3ccccc3O)c2C1c1ccc(Cl)cc1", "note": "(stereo not given)", "Potency": "inconclusive: 29.1 µM [inhibitor, single point]"}
{"compound": "COc1ccc(NC(=O)CSc2nc(SC)ns2)cc1", "Potency": "inconclusive: 18.3 µM [activator, partial curve]"}
{"compound": "COc1ccc(SCC(=O)Nc2ccccc2Cl)cc1", "activity change, negative = inhibition": "inactive: 13.4%"}
{"compound": "Cc1cccc2sc(N(CCCN(C)C)C(=O)c3ccc4ncsc4c3)nc12", "Potency": "inconclusive: 11.6 µM [activator, partial curve]"}
{"compound": "COc1cc([C@@H]2OC[C@@H]3[C@H]2CO[C@@H]3c2ccc3c(c2)OCO3)ccc1O", "activity change, negative = inhibition": "inactive: -0.127%"}
{"compound": "Cc1ccc(CNC(=O)Cc2cn(C)c3ccccc23)cc1", "Potency": "inconclusive: 18.3 µM [activator, partial curve, poor fit]"}
{"compound": "O=C(Nn1cnnc1)c1ccncc1", "activity change, negative = inhibition": "inactive: 18.5%"}
{"compound": "CCOC(=O)c1sc(NC(=O)c2ccc(S(=O)(=O)N(C)C)cc2)nc1C", "activity change, negative = inhibition": "inactive: -27.9%"}
{"compound": "COc1cccc(CN(C)C(=O)c2cc(S(=O)(=O)N3CCCC3)ccc2C)c1OC", "Potency": "inconclusive: 4.11 µM [inhibitor, partial curve]"}
{"compound": "CNC(=O)/C(=C\\c1cccc(Oc2ccccc2)c1)NC(=O)c1ccccc1", "activity change, negative = inhibition": "inactive: -2.12%"}
{"compound": "Oc1c(CN2CCN(c3ccc(F)cc3)CC2)cc(Cl)c2cccnc12", "Potency": "inconclusive: 29.1 µM [activator, single point]"}
{"compound": "CCC1CCCCN1S(=O)(=O)c1ccc(NC(=O)c2cccs2)cc1", "note": "(stereo not given)", "Potency": "active: 20.6 µM"}
{"compound": "CC(C)(C)c1ccc(OCC(=O)Nc2cccc(S(=O)(=O)NC3=NCCCCC3)c2)cc1", "activity change, negative = inhibition": "inactive: 0.754%"}
{"compound": "COc1cc(/C=N/Nc2snc(SC)c2C#N)ccc1O", "Potency": "inconclusive: 16.4 µM [activator, single point]"}
{"compound": "Cc1csc(NC(=O)c2ccc(S(C)(=O)=O)cc2)n1", "Potency": "inconclusive: 29.1 µM [activator, single point]"}
{"compound": "COc1ccc(C(=O)NC(=S)N2CCN(c3ccccc3OC)CC2)cc1", "Potency": "inconclusive: 29.1 µM [inhibitor, single point]"}
{"compound": "COc1ccc(-c2csc(NC(=O)CSc3nc(C)nc4sc(C(=O)O)c(C)c34)n2)cc1", "activity change, negative = inhibition": "inactive: -4.93%"}
{"compound": "Cn1c(C(=O)N2CCOCC2)cc2c(=O)n3ccccc3nc21", "activity change, negative = inhibition": "inactive: 4%"}
{"compound": "Fc1cnc(N/N=C/c2ccc(-c3ccc(Br)cc3)o2)nc1N1CCOCC1", "Potency": "active: 11.6 µM"}
{"compound": "COc1cccc(/C=N/Nc2nc(N3CCCC3)nc(N3CCCC3)n2)c1O", "Potency": "active: 14.6 µM"}
{"compound": "COC(=O)c1c(-c2ccccc2)csc1N1C(=O)Nc2ccccc2N1O", "Potency": "inconclusive: 20.6 µM [activator, partial curve]"}
{"compound": "O=C(COC(=O)c1ccccc1O)Nc1ccc(S(=O)(=O)N2CCCCC2)cc1", "activity change, negative = inhibition": "inconclusive: 10.4% [activator]"}
{"compound": "CC(C)NC(=O)C1CCN(C2CCN(C(=O)C3=CCCC3)CC2)CC1", "Potency": "inconclusive: 0.0065 µM [inhibitor, full curve, poor fit]"}
{"compound": "C=CCN1C=CC(=CC=C(C#N)C#N)C=C1", "Potency": "inconclusive: 29.1 µM [activator, single point]"}
{"compound": "COc1ccc(S(=O)(=O)N2CCOC2CNC(=O)C(=O)NCc2ccccc2Cl)cc1", "note": "(stereo not given)", "activity change, negative = inhibition": "inactive: 6.09%"}
{"compound": "COc1cccc(-c2nn(-c3ccccc3)cc2/C=C(/NC(=O)c2ccccc2)C(=O)O)c1", "Potency": "inconclusive: 25.9 µM [activator, single point]"}
{"compound": "CCOc1nc2cnccc2n(CC(=O)Nc2ccc(C)c(C)c2)c1=O", "activity change, negative = inhibition": "inactive: 10.9%"}
{"compound": "O=C(NOCc1ccccc1)c1ccccc1", "Potency": "inconclusive: 5.01 µM [activator, partial curve] and inconclusive: 2.91 µM [activator, full curve]"}
{"compound": "COc1cc(NC(=O)c2ccccn2)cc(OC)c1OC", "Potency": "inconclusive: 18.3 µM [activator, single point]"}
{"compound": "COc1cccc(/C=C/C(=O)NNC(=O)c2ccncc2)c1OC", "Potency": "inconclusive: 18.3 µM [activator, single point]"}
{"compound": "COc1ccc(-c2c3c(cc(C)[n+]2[O-])oc2ccc(OC)cc23)cc1", "Potency": "inconclusive: 20.6 µM [inhibitor, single point]"}
{"compound": "COc1ccc(CNC(=O)c2ccc(N3CCCC3=O)cc2)cc1", "Potency": "inconclusive: 23.1 µM [activator, single point]"}
{"compound": "CCCSc1nsc(NC(=O)C(c2ccccc2)c2ccccc2)n1", "Potency": "inconclusive: 18.4 µM [inhibitor, single point]"}
{"compound": "CC(=O)c1cccc(S(=O)(=O)N2CCN(c3nc4cc(C)cc(C)c4cc3C#N)CC2)c1", "Potency": "inconclusive: 20.6 µM [inhibitor, single point]"}
{"compound": "Cc1ccc(Cc2cnc(NC(=O)c3cccs3)s2)cc1", "Potency": "inconclusive: 3.55 µM [activator, single point]"}
{"compound": "Cc1cc2nc(C)c(Cc3ccccc3)c(=O)n2[nH]1", "activity change, negative = inhibition": "inactive: -2.18%"}
{"compound": "c1ccc(Nc2nc3ccccc3o2)cc1", "Potency": "inconclusive: 4.61 µM [activator, partial curve]"}
{"compound": "Cc1ccc(C)c(NC(=S)N(CCc2nc3cc(C)c(C)cc3[nH]2)Cc2cccnc2)c1", "Potency": "inconclusive: 12.6 µM [inhibitor, partial curve, poor fit]"}
{"compound": "O=C(CSc1nn(-c2ccc(F)cc2)c(=S)s1)NCC1CCCO1", "note": "(stereo not given)", "activity change, negative = inhibition": "inactive: -3.9%"}
{"compound": "CCS(=O)(=O)N1Cc2ccccc2CC1C(=O)N(C)Cc1ccc(OC)cc1OC", "note": "(stereo not given)", "Potency": "inconclusive: 32.6 µM [inhibitor, partial curve, poor fit]"}
{"compound": "COC(=O)[C@@]1(Cc2ccc(F)cc2)[C@H]2c3cc(C(=O)N4CCCC4)n(Cc4ccc(C(F)(F)F)nc4)c3C[C@H]2CN1C(=O)c1ccccc1", "Potency": "inconclusive: 18.4 µM [inhibitor, single point]"}
{"compound": "CCCCOc1ccc(N=Nc2ccc(N)nc2N)cn1", "Potency": "inconclusive: 20.6 µM [activator, partial curve]"}
{"compound": "Cc1cccc(OCc2nnc(SCC(=O)c3c(N)n(C4CC4)c(=O)[nH]c3=O)o2)c1", "activity change, negative = inhibition": "inactive: 16%"}
{"compound": "O=C(CSc1nc2nc(-c3cccs3)cc(C(F)(F)F)c2c(=O)[nH]1)C(F)(F)F", "Potency": "inconclusive: 29.1 µM [activator, single point]"}
{"compound": "CCCCC(=O)Nc1nnc(S(=O)(=O)N(C)Cc2ccco2)s1", "activity change, negative = inhibition": "inactive: 3.15%"}
{"compound": "Cc1cc(/C=N/NC(=O)c2cccc(F)c2)c(C)n1-c1ccccc1", "Potency": "inconclusive: 6.51 µM [activator, partial curve]"}
{"compound": "OCC1C2c3ccccc3C(c3ccccc32)C1CO", "note": "(stereo not given)", "activity change, negative = inhibition": "inactive: -1.11%"}
{"compound": "CCC(CC)C(=O)c1c[nH]c(C(=O)N2CCN(c3ccc(OC)cc3)CC2)c1", "activity change, negative = inhibition": "inactive: -1.36%"}
{"compound": "COC(=O)c1cc2sccc2n1Cc1nc(-c2ccc(OC)cc2)oc1C", "Potency": "inconclusive: 29.1 µM [activator, single point]"}
{"compound": "COc1cc2c(C(=O)NCCN(C)C)cn(CC(C)C)c(=O)c2cc1OC", "Potency": "inconclusive: 0.0411 µM [activator, full curve, poor fit]"}
{"compound": "C=CCNC(=S)Nc1nc2c(cc1C(=O)OCC)COC(C)(C)C2", "Potency": "inconclusive: 25.9 µM [inhibitor, single point]"}
{"compound": "Cc1nc2c(-c3ccc(F)cc3)cnn2c(N)c1-c1ccc(F)cc1", "Potency": "inconclusive: 2.59 µM [activator, partial curve]"}
{"compound": "Cc1cccc2c1-c1sc(C(=O)N3CCCCC3)cc1CO2", "Potency": "inconclusive: 14.6 µM [activator, partial curve]"}
{"compound": "CCOc1cc(/C=N/Nc2nncc(-c3ccccc3)n2)ccc1O", "Potency": "inconclusive: 9.2 µM [inhibitor, partial curve]"}
{"compound": "Cc1cc(C(=O)CSc2nncs2)c(C)n1Cc1ccco1", "Potency": "inconclusive: 1.64 µM [activator, partial curve]"}
{"compound": "COc1ccc(C(=O)C(O)C(c2ccc(C)cc2)N2CCOCC2)cc1OC", "note": "(stereo not given)", "activity change, negative = inhibition": "inactive: 1.42%"}
{"compound": "COc1ccc(Br)cc1/C=N/Nc1ccc(Cl)c(C(=O)O)c1", "Potency": "inconclusive: 29.1 µM [activator, single point]"}
{"compound": "Cc1cc(OCC(=O)N2CCCCCC2)ccc1[N+](=O)[O-]", "Potency": "inconclusive: 16.4 µM [activator, partial curve]"}
{"compound": "Cc1ccn2cc(-c3ccc4c(c3)NC(=O)CO4)nc2c1", "Potency": "inconclusive: 2.59 µM [activator, full curve]"}
{"compound": "CCN1C(=O)/C(=C/c2nc3ccccc3c(=O)[nH]2)c2ccccc21", "Potency": "inconclusive: 18.4 µM [activator, single point]"}
{"compound": "Cn1ncc([N+](=O)[O-])c1C(=O)N/N=C/c1cccc([N+](=O)[O-])c1", "activity change, negative = inhibition": "inactive: 9.22%"}
{"compound": "CC(C)(O)[C@H]1Cc2cc3ccc(=O)oc3cc2O1", "Potency": "inconclusive: 18.3 µM [activator, partial curve]"}
{"compound": "Cc1ccc2sc(C)[n+](CCO)c2c1", "activity change, negative = inhibition": "inactive: 14.9%"}
{"compound": "Cc1ccc(C)c(N2CCN(S(=O)(=O)c3ccc4c(c3)NC(=O)CS4)CC2)c1", "Potency": "inconclusive: 0.411 µM [inhibitor, partial curve]"}
